Each structure is given as a SMILES string. In all, about 3,000 compounds went through this assay and about 45 (2%) showed an effect of 50% or more. This is one part of the list.

The test system of the assay is MOLM1 and UCSD/AML1 (averaged). Description: cell viability relative to DMSO control (POC); higher = less growth inhibition. To be noted: 1 µM; 72 h. The method, then:
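Primary viability screen in the 3q26 EVI1-high AML cell lines MOLM1 and UCSD/AML1, compounds at 1 uM for 72 h. ATP CellTiter-Glo read-out given as percent viable over DMSO control (POC), averaged over duplicates. This mapping covers the TimTec NDL-3000 natural derivative library, whose compounds are identified by TimTec catalogue codes (ST...).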
On to `CCc1ccc(NC(=O)c2cc3cc(Cl)ccc3oc2=N)cc1`, for which the cell viability (commonly a read-out of living cells in per cent, often relative to untreated cells) is 103%.
Next, `CCOc1ccc(NC(=O)Cn2c(=O)cc(C(=O)N3CCc4ccccc4C3)c3ccccc32)cc1`: 109%; `Cc1cc(=O)[nH]c2ccc(S(=O)(=O)N3CCCc4ccccc43)cc12`: 97.2%.
Next, `O=c1[nH]c(=O)n(-c2nc(-c3ccccc3)oc2-c2ccccc2)cc1Cl`: 99.5%; `CCc1ccc(NC(=O)CSc2nc3c(=O)[nH]cnc3n2CC)cc1`: 94.6%.
In the case of `COc1cccc(C2NC(CCSC)(C(=O)O)C3C(=O)N(C(C)C)C(=O)C23)c1O` (centres undefined), the cell viability was 103%.
Next, `O=C(N/N=C\c1cc(Br)cc(Br)c1OC(=O)c1cccc(F)c1)c1ccc2c(c1)OCO2`: 64.1%; `C[C@@H]1CC2C3CCC4=CC(=O)C=C[C@]4(C)[C@@]3(F)[C@@H](O)C[C@]2(C)[C@@]1(O)C(=O)COC(=O)c1cccc(S(=O)(=O)O)c1` (some centres undefined): 78.9%; `CCOc1cc(C2C(C(=O)OCC(C)C)=C(C)NC3=C2C(=O)CC(c2ccc(Cl)cc2)C3)ccc1O` (centres undefined): 96.6%.
Next, `COc1ccc(C(=O)/C=C/c2ccccc2)c(O)c1`: 101%.
Next, `O=C(CCNc1ccc(Br)cc1)c1ccc2c(c1)OCO2`: 88.7%.
Take `CCOc1ccc2oc(=O)cc(CN3CCN(CC(=O)NC(C)(C)C)CC3)c2c1`: the cell viability was 101%.
With `Cn1c(=O)c2c(nc3n(CC(O)c4ccccc4)c(C45CC6CC(CC(C6)C4)C5)cn23)n(C)c1=O` (centres undefined), the cell viability is 86.2%.
Next, `COc1cc(OC)cc(C(=O)Nc2ccc3ncn(C)c3c2)c1`: 98.6%; `CCOc1ccc2oc(=O)cc(CN3CCN(CC(=O)Nc4ccc(F)c(Cl)c4)CC3)c2c1`: 97.9%; `O=C(O)C(Cc1c[nH]c2ccccc12)Nc1ccc([N+](=O)[O-])cc1[N+](=O)[O-]` (centres undefined): 99.5%.
As for `Cc1ccc(N2C3=C(C(=O)CC(C)(C)C3)C(c3ccc(O)cc3)C3=C2CC(C)(C)CC3=O)cc1`, the figure is 89.8%.
For the compound `O=C(Nc1cccc(C(F)(F)F)c1)c1cc2ccccc2oc1=O`, the cell viability was determined as 107%.
As for `CCCNC(=O)c1cc(=O)n(CC(=O)Nc2ccc(Cl)cc2)c2ccccc12`, the figure is 105%.
With `CCCCCCCOC(=O)C1=C(C)NC(=O)NC1c1cc(Br)c(O)c(OC)c1` (centres undefined), the cell viability was determined as 104%.
As for `O=C(CSc1nccc(-c2cccs2)n1)c1ccc2c(c1)OCCO2`, the figure is 92.3%; as for `COC(=O)NC(CCc1ccccc1)C(=O)O` (centres undefined), 103%.
As for `N#CC1=C(N)Oc2c(c(=O)[nH]c3ccccc23)C1c1cccc(O)c1` (centres undefined), the figure is 92.8%; as for `COc1cc(NC(=O)Cn2c(=O)cc(C(=O)N3CCc4ccccc4C3)c3ccccc32)cc(OC)c1`, 95.4%.
In the case of `CCc1ccc(C2Nc3ccc4ccccc4c3-c3c2c(=O)oc2ccccc32)cc1` (centres undefined), the cell viability was 105%.
Next, `COC(=O)C1=C(C)Nc2sc(C(N)=O)c(N)c2C1c1cc(OC)c(OC)c(OC)c1` (centres undefined): 99.7%; `COc1cc(C(=O)Cc2ccccc2)c(O)cc1O`: 100%.
Consider `Cc1cc(C)cc(NC(=O)C2=Cc3ccccc3OC2)c1`, for which the cell viability is 92.7%.
Consider `COc1ccc2oc(=O)cc(CN3CCN(CC#N)CC3)c2c1`, for which the cell viability came to 98.8%.
As for `COc1ccc(/C=C/C(=O)c2ccc(O)cc2)cc1CSc1nc2ccccc2[nH]1`, the figure is 94.2%.
For the compound `Cc1[nH]c2ccccc2c1CCNC(=O)/C(=C/c1ccccc1)NC(=O)c1ccccc1Br`, the cell viability came to 84.6%.
Next, `CCOc1cc(C2NC(=O)NC(C)=C2C(=O)OC2CCCCCCC2)ccc1O` (centres undefined): 89.8%; `COc1cccc(C2CC(=O)c3ccccc3O2)c1OC` (centres undefined): 98.9%.
As for `COc1cc(C(=O)NCCOc2ccccc2C)cc(OC)c1OC`, the cell viability was determined as 96.6%.
With `O=C(/C=C/c1ccc(NC(=O)c2cc(NC(=O)C(c3ccccc3)c3ccccc3)cc(NC(=O)C(c3ccccc3)c3ccccc3)c2)cc1)c1ccccc1`, the cell viability was 94.6%.
As for `O=C(CSc1cn[nH]n1)c1ccc2c(c1)OCCO2`, the figure is 101%; as for `CCc1ccc(Oc2coc3cc(OCC(=O)OC)ccc3c2=O)cc1`, 103%; as for `COC(=O)COc1ccc(OC)c(NC(=O)c2cc(=O)n(C)c(=O)n2C)c1`, 96.5%.
Next, `COc1cc(C(=N)SC)cc(OC)c1OC`: 105%; `CC(C)(C)c1ccc(S(=O)(=O)NC(Cc2c[nH]c3ccccc23)C(=O)O)cc1` (centres undefined): 96.3%; `COc1ccc(C(=O)CC2OC(=O)c3c2ccc(OC)c3OC)c(O)c1` (centres undefined): 92.7%.
`COC(=O)c1ccc2c(c1)C(=O)/C(=C/c1ccc(O)cc1)O2`: the cell viability is 104%.
As for `CCOc1ccccc1NC(=O)C(CC)Sc1nc2c(=O)[nH]cnc2n1C` (centres undefined), the figure is 99.1%; as for `Cc1cccc(C)c1NC(=O)Cn1c(=O)cc(C(=O)NCc2ccccc2)c2ccccc21`, 89.3%.
`CSCCC(NC(=O)c1nc(-c2ccccc2)n(-c2ccc(C)cc2)n1)C(=O)O` (centres undefined): the cell viability was 104%.
Next, `Cc1cc2n(n1)C(c1coc3ccccc3c1=O)Nc1ccccc1-2` (centres undefined): 97.7%; `Cc1oc(-c2cccc(Cl)c2)nc1CSc1nc2c(=O)[nH]cnc2n1C`: 90.7%; `COc1ccc(C(=O)Nc2ccc(Br)cc2C)cc1OC`: 91.2%.
As for `Cc1oc(-c2ccccc2)nc1CSc1nc2c(=O)[nH]cnc2n1C`, the cell viability amounted to 112%.
`Cc1ccc2c(CN3CCN(Cc4ccc(Cl)cc4)CC3)cc(=O)oc2c1`: the cell viability is 96.2%.
Next, `NC(CO)C(=O)Nc1ccc2ccccc2c1` (centres undefined): 94.4%; `O=C(CCNc1ccc2c(c1)oc1ccccc12)c1ccc2c(c1)OCO2`: 99.4%.
Next, `Cc1ccc(S(=O)(=O)NC(Cc2ccccc2)C(=O)O)cc1` (centres undefined): 100%; `COc1ccccc1C(=O)N/C(=C\c1ccco1)C(=O)NCCc1c(C)[nH]c2ccccc12`: 93.8%.
In the case of `COC(=O)C1CC23CCC[N+]4(C)CCC5(c6ccccc6N(C(C)=O)C15CC2)C34` (centres undefined), the cell viability worked out at 115%.
On to `Cc1cc(C)c(NC(=O)Cn2c(=O)cc(C(=O)N3CCOCC3)c3ccccc32)c(C)c1`, for which the cell viability is 100%.
As for `CC(C)OC(=O)C1=C(N)Oc2c(oc(CO)cc2=O)C1c1c(F)cccc1Cl` (centres undefined), the cell viability came out at 98.2%.
With `Cc1cc2c(C(C)C)c(O)c(O)c(C=NCC34CC5CC(C)(CC(C)(C5)C3)C4)c2c(O)c1-c1c(C)cc2c(C(C)C)c(O)c(O)c(C=NC34CC5CC(C)(CC(C)(C5)C3)C4)c2c1O`, the cell viability came out at 109%.
Next, `CC(=O)NC(Cc1c[nH]c2ccccc12)C(=O)NC1CC1` (centres undefined): 102%; `CCCc1[nH]nc2c1C(c1cc(OC)c3c(c1)OCO3)C(C#N)=C(N)O2` (centres undefined): 99.2%; `N#Cc1cccc(NC(=O)Cn2c(=O)cc(C(=O)N3CCc4ccccc4C3)c3ccccc32)c1`: 90.2%.
On to `CCOc1ccc2oc(=O)cc(CN3CCN(Cc4nc(-c5ccccc5OC)oc4C)CC3)c2c1`, for which the cell viability was 96.9%.
As for `N#CC1=C(N)Oc2[nH]c(=O)[nH]c(=O)c2C1c1cccc2ccccc12` (centres undefined), the figure is 100%; as for `CCOc1ccccc1Oc1c(C(F)(F)F)oc2c(CN3CCOCC3)c(O)ccc2c1=O`, 99.2%.
Turning to `O=C(CC1(O)C(=O)N(Cc2ccccc2F)c2ccccc21)c1ccc2c(c1)OCO2` (centres undefined), the cell viability is 99.5%.
As for `O=C(Cn1c(=O)cc(C(=O)NCc2ccccc2)c2ccccc21)Nc1cccc(Br)c1`, the figure is 88.9%.
As to `O=c1ccoc2ccc(F)cc12`, the cell viability is 93.3%.
As for `O=C(O)CN(CC(=O)O)Cc1cc2c(c(O)c1O)C(=O)c1ccccc1C2=O`, the figure is 91.6%; as for `CC(=O)OCC1OC(OC(C)=O)C(OC(C)=O)C(OC(C)=O)C1OC(C)=O` (centres undefined), 109%; as for `CCC(CC)c1nc(Nc2ccc(C(=O)OC)cc2)c2ccccc2n1`, 70.5%.
Next, `COc1ccc(-c2cc(-c3ccc(C)cc3)c(C#N)c(=O)[nH]2)cc1OC`: 101%.
As for `COC(=O)c1c(NC(=O)COC(=O)CN2C(=O)c3c(Cl)c(Cl)c(Cl)c(Cl)c3C2=O)sc2c1CCC(C)C2` (centres undefined), the figure is 107%.
With `CC(C)OC(=O)C1=C(N)Oc2c(oc(CO)cc2=O)C1c1ccc(Cl)cc1` (centres undefined), the cell viability stood at 96.2%.
Take `O=c1[nH]c(NCCCO)c(Br)c(=O)[nH]1`: the cell viability came out at 103%.
Next, `CCCCC(NC(=O)CCC(=O)O)C(=O)O` (centres undefined): 97.4%.
As to `CCOC(=O)/C(C#N)=C/c1ccc(Cl)cc1`, the cell viability was found to be 102%.
Regarding `Cc1ccc2[nH]c(C)c(CCNC(=O)c3cc(S(=O)(=O)N(C)C)c(Cl)cc3Cl)c2c1`, the cell viability came to 94.4%.
As for `CCc1cccc(C)c1NC(=O)CSc1nc2c(=O)[nH]cnc2n1C`, the figure is 91.6%.
Next, `C#CCSc1nc(N)c2c(n1)OC(N)=C(C#N)C2c1cccc(F)c1` (centres undefined): 74.4%.
Next, `COc1ccc(N2C(=O)c3ccccc3NC2c2ccc(OC)cc2O)cc1` (centres undefined): 110%.
As for `Cc1ccc(/C=C2\Oc3cc(O)ccc3C2=O)cc1`, the cell viability amounted to 98.7%.
As for `Cc1cc(OCC(=O)Nc2ccc(-c3cc4ccccc4oc3=O)c(C)c2)ccc1Cl`, the figure is 98.7%; as for `COc1cc2c(=O)n(-c3ccccc3)c(SCC(=O)N3CCCC3)nc2c(OC)c1OC`, 105%; as for `COc1cc(C2C(C#N)=C(N)OC3=C2C(=O)CCC3)cc2c1OCO2` (centres undefined), 116%.
As for `O=c1[nH]c2ccccc2c(=O)n1CCO`, the cell viability amounted to 108%.
For the compound `COc1cc(/C=N/NC(=O)CCNc2n[nH]c(=O)[nH]c2=O)ccc1OCc1ccccc1`, the cell viability was found to be 94.3%.
Regarding `CCCCCCCCCSc1nc2c(c(=O)[nH]c(=O)n2C)n1Cc1cccc(C)c1`, the cell viability is 107%.
As for `COc1cccc(-c2nc(CSc3nc4c(=O)[nH]c(C)nc4n3C)c(C)o2)c1OC`, the cell viability is 97.2%.
Take `COc1ccc(OC)c(NC(=O)c2cc(OC)c(OC)c(OC)c2)c1`: the cell viability stood at 85.9%.
As for `O=C(O)/C=C/c1cccc([N+](=O)[O-])c1`, the figure is 103%.
As for `CCOc1cc(C2C(C(=O)OCCOC)=C(C)NC3=C2C(=O)CC(c2ccc(Cl)cc2)C3)cc(Br)c1O` (centres undefined), the figure is 98.2%.
With `COc1cccc(NC(=O)Cn2c(=O)cc(C(=O)N3CCOCC3)c3ccccc32)c1`, the cell viability came out at 104%.
For `CCN(C(=O)c1ccc(OC)c(OC)c1)c1ccccc1C`, the cell viability was 83.1%.
As for `O=C1C2OCC(O2)[C@@H]2[C@@H]1[C@@H]1c3ccccc3C=CN1[C@H]2C(=O)c1ccc(F)cc1` (some centres undefined), the figure is 90.3%; as for `Cc1cc(=O)n2c3c(cccc13)CCC2`, 97.9%; as for `Cc1ccc(NC(=O)CSc2nc3c(=O)[nH]cnc3n2C)c(Cl)c1`, 91.1%.
In the case of `COc1cc(/C=N/NC(=O)c2ccccc2N)ccc1O`, the cell viability stood at 107%.
For `O=C(Cn1c(=O)sc2cc(S(=O)(=O)N3CCOCC3)ccc21)N1CCc2ccccc2C1`, the cell viability was determined as 101%.
Next, `COCCOC(=O)c1c(C)n(-c2cccc(Cl)c2)c2c1cc(O)c1ccccc12`: 98.8%.

For the origin of these results see the supplement of paper PMC11150407.
